Data as given in PubChem BioAssay AID540276 (National Center for Advancing Translational Sciences (NCATS), 2011).
“And” between values parts separate entries of the source, which are not always exact repeats. Equal values may be shown once. Hit rate of the full screen: of about 300,000 compounds, about 5,400 (1.8%) were called active. The shares of active, inactive and inconclusive entries below differ from those in the screen. Calls follow the shape of the full dose curve; tested in HEK293 cells. Potencies beside an inconclusive call are fits to weak or partial responses and may not hold up. The source holds several records for some structures; these can differ, active in one and inactive in another.

Assay: qHTS for inhibitors of binding or entry into cells for Marburg Virus
Conditions: Marburg virus pseudotyped entry inhibition, cell reporter; activity change, negative = inhibition: at 37.8 µM (top of the series) unless noted
% is scaled to controls: 0 for no effect and ±100 for the full control effect; potency is read from the fitted curve at half-maximal effect.

SMILES	Potency	activity change, negative = inhibition
COCCn1c(C)cc(C(=O)CSc2cc(C)c3ccc(OC)cc3n2)c1C	inconclusive: 15.8 µM [inhibitor, single point]	–
COc1ccc(Nc2nnc(SCc3cn4c(C)cccc4n3)s2)cc1	inconclusive: 6.31 µM [inhibitor, partial curve, poor fit]	–
CCOc1ccc2c(c1)C(c1cccs1)=NNC(c1cccnc1)=N2	–	inactive: -16.4% [at 46.1 µM]
Cc1cc(Cl)cc(Cl)c1OCC(=O)NCc1ccco1	–	inactive: 15.3%
Cc1nn(Cc2ccccc2)c(Cl)c1/C=C/C(=O)OCC(=O)N(C)C1CCS(=O)(=O)C1 (configuration not stated)	inconclusive: 3.98 µM [inhibitor, single point]	–
CC(C)(CNC(=O)c1ccc(-c2ccccc2Cl)o1)N1CCOCC1	inconclusive: 5.62 µM [activator, single point]	–
O=C(c1cc2ccccc2s1)N1CCOCC1	inconclusive: 31.6 µM [activator, single point]	–
Cc1nn(CCCC(=O)NCCc2ccc(Cl)cc2)c(=O)c2c1sc1ccccc12	inconclusive: 35.5 µM [inhibitor, single point]	–
O=C(Nc1ccc2ccccc2c1[N+](=O)[O-])c1ccccc1	inconclusive: 1.26 µM [activator, single point]	–
Cc1cc(C(F)F)n2nc(C(=O)Nc3cccc(Cl)c3C)nc2n1	inconclusive: 35.5 µM [inhibitor, single point]	–
CS(=O)(=O)N1CCN(c2ccc(NC(=O)c3ccc(-c4ccc(Cl)cc4)o3)cc2)CC1	inconclusive: 1.16 µM [activator, single point]	–
O=C(CN1CCN(c2ccc(F)cc2)CC1)N1CCC(Cc2ccccc2)CC1	inconclusive: 29.1 µM [inhibitor, single point]	–
CC(=O)NC12CC3CC(C1)CC(C(=O)N1CCN(S(=O)(=O)c4ccccc4C#N)CC1)(C3)C2	inconclusive: 35.5 µM [activator, partial curve, poor fit]	–
Cc1nnc(Cl)c2nn(-c3ccccc3)c(C)c12	–	inactive: 3.91%
Fc1ccccc1CSc1ccc(-c2ccco2)nn1	inconclusive: 11.2 µM [inhibitor, partial curve]	–
CC(NC(=O)CN1CCCC1)C12CC3CC(CC(C3)C1)C2 (configuration not stated)	inconclusive: 16.4 µM [inhibitor, partial curve, poor fit]	–
Cc1cccc(-n2c(O)c(/C=C/C=Nc3ccccc3)c(=O)[nH]c2=O)c1	inconclusive: 0.355 µM [activator, partial curve, poor fit]	–
Cc1ccc(N(C(C)C(=O)Nc2ccc(S(=O)(=O)N3CCOCC3)cc2)S(C)(=O)=O)cc1C (configuration not stated)	inconclusive: 15.8 µM [inhibitor, single point]	–
Cn1nccc1C(=O)NC(=S)Nc1cc(Cl)cc(Cl)c1	inconclusive: 3.98 µM [activator, partial curve]	–
C[C@]12CCC3C(CC[C@H]4C[C@@H](O)CC[C@]34C)[C@H]1CC[C@H]2O (some centres not stated)	–	inactive: 8.13% [at 46.1 µM]
COc1ccc2c(c1)c(=O)cc(C)n2CC(=O)NCc1ccco1	inconclusive: 6.31 µM [inhibitor, full curve, poor fit]	–

Quoted from the listing:
For Potency, Cc1ccc(N(C(C)C(=O)Nc2ccc(S(=O)(=O)N3CCOCC3)cc2)S(C)(=O)=O)cc1C (configuration not stated) reads inconclusive: 15.8 µM [inhibitor, single point]
For activity change, negative = inhibition, Cc1cc(Cl)cc(Cl)c1OCC(=O)NCc1ccco1 reads inactive: 15.3%
For Potency, Fc1ccccc1CSc1ccc(-c2ccco2)nn1 reads inconclusive: 11.2 µM [inhibitor, partial curve]

Carrying on.

SMILES	Potency	activity change, negative = inhibition
Cc1ccc(-c2cc(C(=O)Nc3nccs3)c3ccccc3n2)o1	inconclusive: 12.6 µM [inhibitor, partial curve, poor fit]	–
O=C(Nc1ccc(CN2CCCCC2)cc1)c1cccc(Br)c1	inconclusive: 3.16 µM [activator, partial curve, poor fit]	–
Fc1ccc(C(c2nnnn2Cc2cccs2)N2CCN(C3CCCCC3)CC2)cc1 (configuration not stated)	inactive and active: 22.4 µM	–
N=c1c(C(=O)NCC2CCCO2)cc2c(=O)n3ccccc3nc2n1CCCO (configuration not stated)	–	inactive: 17.7% [at 46.1 µM]
NC(=O)N/N=C(/CCCCCC/C(=N\NC(N)=O)c1ccccc1)c1ccccc1	inconclusive: 22.4 µM [inhibitor, partial curve, poor fit]	–
CCN(CC(=O)Nc1ccccc1OC)C(=O)Cn1cnc2ccccc2c1=O	inconclusive: 3.55 µM [activator, full curve, poor fit]	–
C=CCN=c1scc(-c2ccc(F)cc2)n1/N=C/c1ccccn1	inconclusive: 1 µM [inhibitor, full curve, poor fit]	–
Cc1ccc(Oc2nc(CN3CCOCC3)nc3sc4c(c23)CCC(C)C4)cc1C (configuration not stated)	inconclusive: 35.5 µM [inhibitor, single point]	–
C=CCOC(=O)Nc1c(C(=O)OC)[nH]c2ccccc12	inconclusive: 0.708 µM [activator, full curve, poor fit]	–
COCC1CCN(C(=O)c2ccc(OC)c(OC3CCN(C(C)C)CC3)c2)CC1	–	inactive: 2.02%
CCc1noc(-c2ccc(NCc3ccccc3)c([N+](=O)[O-])c2)n1	inconclusive: 1 µM [inhibitor, partial curve, poor fit]	–
O=C(Cc1ccc(Cl)c(Cl)c1)Nc1ccccc1N1CCOCC1	inconclusive: 22.4 µM [inhibitor, single point]	–
CCOC(=O)c1c(NC(=O)COC(=O)Cc2n[nH]c(=O)c3ccccc23)sc(C(=O)N(C)C)c1C	–	inactive: 2.28%
COc1cc(C(=O)NCC(=O)Nc2c(C)cccc2C)ccc1OCc1ccccc1	inconclusive: 2.82 µM [inhibitor, partial curve]	–
CCOC(=O)C1=C(C)N(C)C2(C)CC1c1ccccc1O2 (configuration not stated)	inconclusive: 0.251 µM [inhibitor, full curve, poor fit]	–
COc1ccc(CNC(N)=O)cc1OC	–	inconclusive: 3.99% [activator]
CCc1ccc(OCC(=O)N(Cc2ccco2)Cc2ccccc2Cl)cc1	–	inactive: -29.8% [at 46.1 µM]
O=c1cc(-c2ccccc2)[nH]c2ccc(F)cc12	–	inactive: -44.6%
NC(=S)Nc1nc2ccccc2s1	inconclusive: 35.5 µM [inhibitor, single point]	–
CC(=O)c1ccc(N2Cc3ccccc3C2)cc1	inconclusive: 10 µM [inhibitor, partial curve, poor fit]	–
Fc1ccc2nc(C3CCN(Cc4nc(CC5CC5)no4)CC3)[nH]c2c1	–	inactive: -1.38% [at 46.1 µM]
